In paper PMC10988696, “FLIM‐FRET‐based analysis of S100A11/annexin interactions in living cells” (FEBS Open Bio, 2024):
Results are given in words; binding and its absence hold for the method and conditions named. In cells and extracts the contact can be indirect. Some binding calls cover weakened binding; strength is not graded here.

The chains behind the UniProt entries cited, without tags or fusion partners.
UniProt P07355: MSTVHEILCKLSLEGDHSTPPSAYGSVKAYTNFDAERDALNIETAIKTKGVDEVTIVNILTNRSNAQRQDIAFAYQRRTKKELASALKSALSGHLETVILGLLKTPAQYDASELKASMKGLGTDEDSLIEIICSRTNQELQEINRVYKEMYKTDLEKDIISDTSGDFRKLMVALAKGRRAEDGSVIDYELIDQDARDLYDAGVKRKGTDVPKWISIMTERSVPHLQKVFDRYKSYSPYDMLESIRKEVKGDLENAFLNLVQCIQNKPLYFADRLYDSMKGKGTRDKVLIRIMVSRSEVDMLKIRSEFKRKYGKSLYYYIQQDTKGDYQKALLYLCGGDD

Target: T1, EGFP-ANXA2 (human, UniProt P07355 1-339)
T1 construct: human annexin A2 (ANXA2) with the fluorescent protein tag in the altered orientation (EGFP-ANXA2); The cloning of this orientation is not described in the methods; source: U2OS or HEK293T cells, transfected (calcium phosphate), in living cells; not shown: EGFP, N-terminal, kept
Assay: FRET or BRET; FLIM-FRET (EGFP donor lifetime, mCherry acceptor) in living HEK293T cells co-transfected with both constructs

B1: S100A11-mCherry (natural protein, human, UniProt P31949 1-105, looked up)
chain: MAKISSPTETERCIESLIAVFQKYAGKDGYNYTLSKTEFLSFMNTELAAFTKNQKDPGVLDRMMKKLDTNSDGQLDFSEFLNLIGGLAMACHDSFLKAVPSQKRT
notes: human S100A11 wild type; cloned in pmCherry-N1 (EcoRI, BamHI); End of the tag read from the label S100A11-mCherry and the vector pmCherry-N1; also called S100A11wt; wild-type S100A11-mCherry; source: U2OS or HEK293T cells, transfected (calcium phosphate), in living cells; not shown: mCherry, C-terminal, kept
- binding: binds
